Measured values published in paper PMC12065298.
Results are given in words; binding and its absence hold for the method and conditions named. In cells and extracts the contact can be indirect. Some binding calls cover weakened binding; strength is not graded here. Sequences can lack the tags named with a protein.

Amino acid sequences for entries named in this document (tags omitted).
UniProt P23458: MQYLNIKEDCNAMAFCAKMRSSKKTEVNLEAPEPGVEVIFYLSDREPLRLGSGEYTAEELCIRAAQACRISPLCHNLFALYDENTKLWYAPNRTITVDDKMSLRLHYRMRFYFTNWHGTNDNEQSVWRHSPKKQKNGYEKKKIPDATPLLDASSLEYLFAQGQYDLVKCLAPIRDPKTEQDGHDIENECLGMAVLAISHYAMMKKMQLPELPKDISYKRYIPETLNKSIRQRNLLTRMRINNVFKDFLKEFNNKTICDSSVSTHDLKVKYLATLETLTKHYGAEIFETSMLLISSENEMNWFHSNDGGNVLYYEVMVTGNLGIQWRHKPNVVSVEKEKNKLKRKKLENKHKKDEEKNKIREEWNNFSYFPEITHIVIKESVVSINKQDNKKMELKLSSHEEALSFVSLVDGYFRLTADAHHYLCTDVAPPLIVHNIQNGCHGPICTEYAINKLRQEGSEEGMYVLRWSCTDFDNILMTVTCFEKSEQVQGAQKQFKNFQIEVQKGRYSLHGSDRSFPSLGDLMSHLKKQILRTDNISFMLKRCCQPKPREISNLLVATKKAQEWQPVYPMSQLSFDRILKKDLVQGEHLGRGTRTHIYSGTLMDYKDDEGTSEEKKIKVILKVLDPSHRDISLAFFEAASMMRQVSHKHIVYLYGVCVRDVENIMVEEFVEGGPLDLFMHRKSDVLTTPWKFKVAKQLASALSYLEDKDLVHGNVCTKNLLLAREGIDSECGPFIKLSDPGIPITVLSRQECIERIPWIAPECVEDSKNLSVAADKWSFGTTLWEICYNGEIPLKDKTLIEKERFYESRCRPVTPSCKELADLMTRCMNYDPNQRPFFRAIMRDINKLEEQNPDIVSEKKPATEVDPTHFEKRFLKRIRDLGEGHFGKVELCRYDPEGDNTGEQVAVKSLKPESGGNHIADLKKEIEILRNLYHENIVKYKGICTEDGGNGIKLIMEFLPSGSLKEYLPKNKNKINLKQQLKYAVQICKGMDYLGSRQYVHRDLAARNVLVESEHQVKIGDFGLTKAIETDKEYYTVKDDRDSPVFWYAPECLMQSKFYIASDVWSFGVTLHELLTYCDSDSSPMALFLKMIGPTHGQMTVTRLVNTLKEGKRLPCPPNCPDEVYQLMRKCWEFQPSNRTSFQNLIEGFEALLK
UniProt P02538: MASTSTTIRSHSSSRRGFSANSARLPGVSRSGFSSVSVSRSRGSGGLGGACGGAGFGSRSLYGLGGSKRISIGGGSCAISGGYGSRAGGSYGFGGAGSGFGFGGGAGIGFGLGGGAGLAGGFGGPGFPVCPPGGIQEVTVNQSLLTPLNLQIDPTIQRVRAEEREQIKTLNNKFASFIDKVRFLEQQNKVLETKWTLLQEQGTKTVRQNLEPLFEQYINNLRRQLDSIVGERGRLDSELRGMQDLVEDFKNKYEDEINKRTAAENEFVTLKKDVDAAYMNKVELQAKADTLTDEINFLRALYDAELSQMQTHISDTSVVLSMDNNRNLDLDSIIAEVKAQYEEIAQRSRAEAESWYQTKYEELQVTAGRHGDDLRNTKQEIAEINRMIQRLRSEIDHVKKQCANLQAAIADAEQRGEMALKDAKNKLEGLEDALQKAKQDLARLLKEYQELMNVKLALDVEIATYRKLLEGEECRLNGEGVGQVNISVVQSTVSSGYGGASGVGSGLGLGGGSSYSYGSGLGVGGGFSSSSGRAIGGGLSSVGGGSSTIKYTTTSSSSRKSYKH

B1: HA-RNF41 (ring finger protein 41), full length (enzyme, UniProt Q9H4P4 1-317)
chain: MGYDVTRFQGDVDEDLICPICSGVLEEPVQAPHCEHAFCNACITQWFSQQQTCPVDRSVVTVAHLRPVPRIMRNMLSKLQIACDNAVFGCSAVVRLDNLMSHLSDCEHNPKRPVTCEQGCGLEMPKDELPNHNCIKHLRSVVQQQQTRIAELEKTSAEHKHQLAEQKRDIQLLKAYMRAIRSVNPNLQNLEETIEYNEILEWVNSLQPARVTRWGGMISTPDAVLQAVIKRSLVESGCPASIVNELIENAHERSWPQGLATLETRQMNRRYYENYVAKRIPGKQAVVVMACENQHMGDDMVQEPGLVMIFAHGVEEI
B2: HA-RNF41-NT (RNF41 N-terminal domain, residues 1-133) (domain or fragment, UniProt Q9H4P4 1-133)
chain: MGYDVTRFQGDVDEDLICPICSGVLEEPVQAPHCEHAFCNACITQWFSQQQTCPVDRSVVTVAHLRPVPRIMRNMLSKLQIACDNAVFGCSAVVRLDNLMSHLSDCEHNPKRPVTCEQGCGLEMPKDELPNHN

These molecules were tested against Flag-JAK1 (Janus kinase 1) (human) (UniProt P23458) (assay: co-IP; plasmids co-transfected into HEK293T cells for 48 h; MG132 (50 uM) 4 h; NP-40 lysis buffer; anti-Flag magnetic beads 2 h; washes in 25 mM Tris pH 8.0, 150 mM NaCl, 0.2% NP40; Western blotting; with or without a third plasmid (KRT6A or RNF41)).

binding, binds:
KRT6A (keratin 6A), expressed from the 'KRT6A plasmid' (from UniProt P02538 1-564)
B1
B2
